Data on 3 molecules can be found in article PMC7990204.

Sequences of proteins named here, by UniProt entry; tags and fusion partners are left off.
UniProt Q6KCD5: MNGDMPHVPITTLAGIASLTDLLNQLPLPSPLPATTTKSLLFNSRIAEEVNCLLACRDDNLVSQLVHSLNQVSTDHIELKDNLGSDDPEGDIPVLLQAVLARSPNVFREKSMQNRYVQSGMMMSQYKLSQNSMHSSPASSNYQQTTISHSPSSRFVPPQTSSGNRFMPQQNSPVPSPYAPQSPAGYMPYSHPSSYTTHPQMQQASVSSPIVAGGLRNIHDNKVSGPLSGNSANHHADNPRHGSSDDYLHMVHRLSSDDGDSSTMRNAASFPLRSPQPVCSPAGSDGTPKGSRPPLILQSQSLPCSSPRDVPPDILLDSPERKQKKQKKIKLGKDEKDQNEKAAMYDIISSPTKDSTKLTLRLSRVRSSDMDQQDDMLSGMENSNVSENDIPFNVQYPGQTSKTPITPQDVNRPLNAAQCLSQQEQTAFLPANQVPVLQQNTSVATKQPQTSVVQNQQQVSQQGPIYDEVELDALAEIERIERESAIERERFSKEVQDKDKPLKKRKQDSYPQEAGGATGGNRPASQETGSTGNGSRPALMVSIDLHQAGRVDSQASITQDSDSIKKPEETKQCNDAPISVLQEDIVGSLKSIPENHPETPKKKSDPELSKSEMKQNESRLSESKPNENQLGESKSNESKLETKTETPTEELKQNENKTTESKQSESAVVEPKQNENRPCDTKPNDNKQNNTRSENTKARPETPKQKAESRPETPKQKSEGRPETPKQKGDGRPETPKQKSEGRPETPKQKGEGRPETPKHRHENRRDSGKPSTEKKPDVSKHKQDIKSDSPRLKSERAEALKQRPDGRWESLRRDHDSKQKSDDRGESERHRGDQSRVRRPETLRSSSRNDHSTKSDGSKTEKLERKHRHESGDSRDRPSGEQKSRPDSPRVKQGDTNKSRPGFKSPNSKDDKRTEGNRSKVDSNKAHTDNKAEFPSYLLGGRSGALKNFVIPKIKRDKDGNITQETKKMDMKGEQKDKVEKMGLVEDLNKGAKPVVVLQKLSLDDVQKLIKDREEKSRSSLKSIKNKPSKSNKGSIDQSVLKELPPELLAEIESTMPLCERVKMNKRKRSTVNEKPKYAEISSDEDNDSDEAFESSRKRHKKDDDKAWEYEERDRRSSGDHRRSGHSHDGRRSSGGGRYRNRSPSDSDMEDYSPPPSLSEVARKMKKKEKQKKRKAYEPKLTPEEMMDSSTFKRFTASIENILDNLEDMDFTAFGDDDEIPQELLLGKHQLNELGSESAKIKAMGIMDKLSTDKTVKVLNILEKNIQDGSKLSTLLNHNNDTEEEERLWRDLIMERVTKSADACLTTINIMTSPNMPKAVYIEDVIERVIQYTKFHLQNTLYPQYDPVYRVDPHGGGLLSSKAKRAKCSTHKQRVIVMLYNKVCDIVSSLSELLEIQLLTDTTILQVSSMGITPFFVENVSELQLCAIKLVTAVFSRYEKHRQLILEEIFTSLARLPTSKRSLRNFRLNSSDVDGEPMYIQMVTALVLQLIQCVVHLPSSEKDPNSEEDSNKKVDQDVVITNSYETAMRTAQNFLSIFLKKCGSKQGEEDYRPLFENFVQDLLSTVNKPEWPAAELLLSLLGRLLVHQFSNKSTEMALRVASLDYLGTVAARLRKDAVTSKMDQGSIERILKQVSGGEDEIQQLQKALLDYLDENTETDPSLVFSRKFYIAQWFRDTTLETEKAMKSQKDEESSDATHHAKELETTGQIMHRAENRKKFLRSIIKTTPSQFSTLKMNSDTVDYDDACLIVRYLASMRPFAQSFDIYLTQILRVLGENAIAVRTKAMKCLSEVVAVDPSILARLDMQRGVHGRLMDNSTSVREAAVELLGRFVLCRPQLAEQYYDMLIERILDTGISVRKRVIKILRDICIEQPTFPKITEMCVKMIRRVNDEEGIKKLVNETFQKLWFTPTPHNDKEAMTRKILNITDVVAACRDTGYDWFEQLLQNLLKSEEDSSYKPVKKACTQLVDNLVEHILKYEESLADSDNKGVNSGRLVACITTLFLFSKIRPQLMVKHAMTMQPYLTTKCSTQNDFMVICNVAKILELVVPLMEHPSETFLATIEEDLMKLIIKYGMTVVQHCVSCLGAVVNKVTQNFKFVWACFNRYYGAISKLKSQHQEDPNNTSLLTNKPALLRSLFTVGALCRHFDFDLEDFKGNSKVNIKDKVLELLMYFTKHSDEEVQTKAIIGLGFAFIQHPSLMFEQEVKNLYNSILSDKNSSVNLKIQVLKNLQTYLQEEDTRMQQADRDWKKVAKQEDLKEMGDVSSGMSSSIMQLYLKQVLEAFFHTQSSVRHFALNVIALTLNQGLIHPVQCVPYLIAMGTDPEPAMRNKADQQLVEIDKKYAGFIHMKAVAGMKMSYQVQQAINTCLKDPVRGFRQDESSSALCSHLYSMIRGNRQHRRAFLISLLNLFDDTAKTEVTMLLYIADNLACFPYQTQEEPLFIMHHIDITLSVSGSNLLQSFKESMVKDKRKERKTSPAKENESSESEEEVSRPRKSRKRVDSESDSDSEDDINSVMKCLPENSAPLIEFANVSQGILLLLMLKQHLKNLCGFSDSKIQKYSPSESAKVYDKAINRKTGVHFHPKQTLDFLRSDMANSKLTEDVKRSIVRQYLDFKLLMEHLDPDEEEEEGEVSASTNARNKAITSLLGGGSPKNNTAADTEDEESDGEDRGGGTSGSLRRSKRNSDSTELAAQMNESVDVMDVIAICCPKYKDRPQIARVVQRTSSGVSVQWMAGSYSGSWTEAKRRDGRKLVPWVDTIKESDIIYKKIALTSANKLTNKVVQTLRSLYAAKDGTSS

Assay [1] concerns the target T1, SMC1A (wildtype) (mouse (endogenous in V6.5 mESCs)) (UniProt Q9CU62).
T1 sequence: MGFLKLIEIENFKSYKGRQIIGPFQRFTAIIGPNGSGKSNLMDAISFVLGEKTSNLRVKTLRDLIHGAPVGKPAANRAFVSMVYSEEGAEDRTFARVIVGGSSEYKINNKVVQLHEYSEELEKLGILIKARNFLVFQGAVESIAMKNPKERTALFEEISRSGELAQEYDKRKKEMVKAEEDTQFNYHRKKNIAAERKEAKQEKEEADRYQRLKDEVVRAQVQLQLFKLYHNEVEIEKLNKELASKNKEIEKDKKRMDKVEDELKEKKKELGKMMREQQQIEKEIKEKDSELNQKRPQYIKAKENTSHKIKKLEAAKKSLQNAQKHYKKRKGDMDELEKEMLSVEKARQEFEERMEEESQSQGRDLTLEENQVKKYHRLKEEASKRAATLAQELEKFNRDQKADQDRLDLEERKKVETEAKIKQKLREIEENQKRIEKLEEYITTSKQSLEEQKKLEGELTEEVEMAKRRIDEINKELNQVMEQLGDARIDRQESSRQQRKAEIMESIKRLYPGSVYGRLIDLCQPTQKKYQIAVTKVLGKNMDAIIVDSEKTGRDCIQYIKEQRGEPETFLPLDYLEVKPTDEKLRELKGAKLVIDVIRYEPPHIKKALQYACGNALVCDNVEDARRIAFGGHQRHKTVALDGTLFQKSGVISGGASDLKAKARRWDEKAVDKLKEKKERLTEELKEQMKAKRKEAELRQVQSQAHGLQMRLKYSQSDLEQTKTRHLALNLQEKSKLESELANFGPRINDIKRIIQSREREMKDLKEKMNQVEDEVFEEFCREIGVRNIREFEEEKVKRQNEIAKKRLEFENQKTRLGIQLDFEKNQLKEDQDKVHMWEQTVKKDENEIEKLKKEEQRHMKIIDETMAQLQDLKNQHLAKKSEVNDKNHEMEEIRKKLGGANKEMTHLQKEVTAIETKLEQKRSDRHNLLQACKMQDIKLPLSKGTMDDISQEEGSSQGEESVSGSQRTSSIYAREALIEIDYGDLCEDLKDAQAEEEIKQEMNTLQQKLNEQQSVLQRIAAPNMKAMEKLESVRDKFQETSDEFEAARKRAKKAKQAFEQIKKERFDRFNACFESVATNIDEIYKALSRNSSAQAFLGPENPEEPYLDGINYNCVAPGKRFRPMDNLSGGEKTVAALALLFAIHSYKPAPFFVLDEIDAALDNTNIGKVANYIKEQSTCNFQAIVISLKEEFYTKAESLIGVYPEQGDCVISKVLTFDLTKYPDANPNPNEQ
The assay is described as follows: co-IP; endogenous proteins; 250 ug benzonase-treated nuclear extract of wildtype or SMC1A-R586W mESCs in 500 ul 1x low-stringency IP buffer, overnight at 4 C; 10 ug antibody (SMC1A, NIPBL, STAG2 or non-specific rabbit IgG) on Protein G Dynabeads; western blot. Background: A western blot detects proteins with antibodies after separation by electrophoresis.

In assay [2] the target is T2, SMC1A-R586W (mouse (endogenous in V6.5 mESCs)) (UniProt Q9CU62).
T2 sequence: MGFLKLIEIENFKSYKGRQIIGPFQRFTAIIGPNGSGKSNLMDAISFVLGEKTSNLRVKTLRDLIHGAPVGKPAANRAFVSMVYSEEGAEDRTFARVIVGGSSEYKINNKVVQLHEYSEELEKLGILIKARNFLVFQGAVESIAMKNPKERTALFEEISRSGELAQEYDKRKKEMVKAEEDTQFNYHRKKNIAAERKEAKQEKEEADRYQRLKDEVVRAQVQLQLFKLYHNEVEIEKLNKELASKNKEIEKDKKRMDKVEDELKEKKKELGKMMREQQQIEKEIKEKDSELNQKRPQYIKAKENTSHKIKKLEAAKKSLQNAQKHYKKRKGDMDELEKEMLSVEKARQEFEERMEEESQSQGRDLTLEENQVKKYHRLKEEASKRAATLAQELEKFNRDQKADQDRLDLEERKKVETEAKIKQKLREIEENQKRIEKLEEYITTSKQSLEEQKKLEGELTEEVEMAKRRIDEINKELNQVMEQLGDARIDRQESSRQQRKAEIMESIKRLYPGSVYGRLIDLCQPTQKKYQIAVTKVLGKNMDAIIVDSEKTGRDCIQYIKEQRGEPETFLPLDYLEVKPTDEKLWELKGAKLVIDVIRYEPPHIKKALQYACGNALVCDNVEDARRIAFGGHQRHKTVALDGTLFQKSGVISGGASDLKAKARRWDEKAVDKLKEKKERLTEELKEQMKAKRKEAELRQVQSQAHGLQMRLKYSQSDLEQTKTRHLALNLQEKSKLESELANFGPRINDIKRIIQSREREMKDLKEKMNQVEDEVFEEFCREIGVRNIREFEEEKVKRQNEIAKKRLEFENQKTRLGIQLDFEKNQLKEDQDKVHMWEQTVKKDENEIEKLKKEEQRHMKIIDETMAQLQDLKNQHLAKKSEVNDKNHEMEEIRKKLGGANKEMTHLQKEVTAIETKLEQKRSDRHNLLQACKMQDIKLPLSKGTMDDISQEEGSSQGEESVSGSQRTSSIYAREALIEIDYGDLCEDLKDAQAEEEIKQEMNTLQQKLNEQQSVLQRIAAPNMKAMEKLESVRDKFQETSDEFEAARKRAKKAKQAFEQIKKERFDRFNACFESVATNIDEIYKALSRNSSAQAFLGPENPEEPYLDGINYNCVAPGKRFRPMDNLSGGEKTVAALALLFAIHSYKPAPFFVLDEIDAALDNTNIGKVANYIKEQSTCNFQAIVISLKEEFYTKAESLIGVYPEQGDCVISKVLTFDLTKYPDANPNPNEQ
The assay is described as above.

No constants are given. Whether binding was seen depends on the method and setting. In cells and extracts the contact can be indirect. Some entries that bind do so weakly or less than the wild type. Sequences can lack the tags named with a protein.

For the molecule NIPBL (from UniProt Q6KCD5 1-2798), the binding result in assay [1] and in assay [2] was “binds” throughout.

B1: STAG2 (protein, UniProt O35638 1-1231)
chain: MIAAPEIPTDFNLLQESETHFSSDTDFEDIEGKNQKQGKGKTCKKGKKGPAEKGKSGNGGGKPPSGSNRMNGHHQQNGVENMMLFEVVKMGKSAMQSVVDDWIESYKHDRDIALLDLINFFIQCSGCKGVVTAEMFRHMQNSEIIRKMTEEFDEDSGDYPLTMAGPQWKKFKSSFCEFIGVLVRQCQYSIIYDEYMMDTVISLLTGLSDSQVRAFRHTSTLAAMKLMTALVNVALNLSINMDNTQRQYEAERNKMIGKRANERLELLLQKRKELQENQDEIENMMNAIFKGVFVHRYRDAIAEIRAICIEEIGIWMKMYSDAFLNDSYLKYVGWTMHDKQGEVRLKCLTALQGLYYNKELNSKLELFTSRFKDRIVSMTLDKEYDVAVQAIKLLTLVLQSSEEVLTAEDCENVYHLVYSAHRPVAVAAGEFLYKKLFSRRDPEEDGLMKRRGRQGPNANLVKTLVFFFLESELHEHAAYLVDSMWDCATELLKDWECMNSLLLEEPLSGEEALTDRQESALIEIMLCTIRQAAECHPPVGRGTGKRVLTAKEKKTQLDDRTRITELFAVALPQLLAKYSVDAEKVTNLLQLPQYFDLEIYTTGRLEKHLDALLRQIRNIVEKHTDTDVLEACSKTYHALCNEEFTIFNRVDISRSQLIDELADKFNRLLEDFLQEGEEPDEDDAYQVLSTLKRITAFHNAHDLSKWDLFACNYKLLKTGIENGDMPEQIVIHALQCAHYVILWQLAKITESTSTKEDLLRLKKQMRVFCQICQHYLTNVNTTVKEQAFTILCDILMIFSHQIMSGGRDMLEPLVYTPDSSLQSELLSFILDHVFIEQDDDSNSADGQQEDEASKIEALHKRRNLLAAFCKLIVYTVVEMNTAADIFKQYMKYYNDYGDIIKETMSKTRQIDKIQCAKTLILSLQQLFNEMIQENGYNFDRSSSTFSGIKELARRFALTFGLDQLKTREAIAMLHKDGIEFAFKEPNPQGESHPPLNLAFLDILSEFSSKLLRQDKRTVYVYLEKFMTFQMSLRREDVWLPLMSYRNSLLAGGDDDTMSVISGMSSRGSTVRSKKSKPSTGKRKVVEGMQLALPEESSSSDSMWLSREQTLHTPVMMQTPQLTSTIMREPKRLRPEDSFMSVYPMQAEHHQTPLDYNRRGTSLMEDDEEPIVEDVMMSSEGRIEDLNEGMDFDTMDIDLPPSKNRRERTELKPDFFDPASIMDESVLGVSMF
B1: the binding result in assay [1] and in assay [2] was “binds” throughout.

B2: PDS5B (protein, UniProt Q4VA53 1-1446)
chain: MAHSKTRTNDGKITYPPGVKEISDKISKEEMVRRLKMVVKTFMDMDQDSEEEKELYLNLALHLASDFFLKHPDKDVRLLVACCLADIFRIYAPEAPYTSPDKLKDIFMFITRQLKGLEDTKSPQFNRYFYLLENIAWVKSYNICFELEDSNEIFTQLYRTLFSVINNGHNQKVHMHMVDLMSSIICEGDTVSQELLDTVLVNLVPAHKNLNKQAYDLAKALLKRTAQAIEPYITNFFNQVLMLGKTSISDLSEHVFDLILELYNIDSHLLLSVLPQLEFKLKSNDNEERLQVVKLLAKMFGAKDSELASQNKPLWQCYLGRFNDIHVPIRLECVKFASHCLMNHPDLAKDLTEYLKVRSHDPEEAIRHDVIVSIVTAAKKDILLVNDHLLNFVRERTLDKRWRVRKEAMMGLAQIYKKYSLQSAAGKDAAKQISWVKDKLLHIYYQNSIDDRLLVERIFAQYMVPHNLETTERMKCLYYLYATLDLNAVKALNEMWKCQNLLRHQVKDLLDLIKQPKTDASVKAIFSKVMVITRNLPDPGKAQDFMKKFTQVLEDDEKIRKQLEALVSPTCSCKQAEGCVREITKKLGNPKQPTNPFLEMIKFLLERIAPVHIDTESISALIKQVNKSIDGTADDEDEGVPTDQAIRAGLELLKVLSFTHPISFHSAETFESLLACLKMDDEKVAEAALQIFKNTGSKIEEDFPHIRSALLPVLHHKSKKGPPRQAKYAIHCIHAIFSSKETQFAQIFEPLHKSLDPSNLEHLITPLVTIGHIALLAPDQFAAPLKSLVATFIVKDLLMNDRLPGKKTTKLWVPDEEVSPETMVKIQAIKMMVRWLLGMKNNHSKSGTSTLRLLTTILHSDGDLTEQGKISKPDMSRLRLAAGSAIVKLAQEPCYHEIITLEQYQLCALAINDECYQVRQVFAQKLHKGLSRLRLPLEYMAICALCAKDPVKERRAHARQCLVKNITVRREYLKQHAAVSEKLLSLLPEYVVPYTIHLLAHDPDYVKVQDIEQLKDVKECLWFVLEILMAKNENNSHAFIRKMVENIKQTKDAQGPDDTKMNEKLYTVCDVAMNIIMSKSTTYSLESPKDPVLPARFFTQPDKNFSNTKNYLPPEMKSFFTPGKPKTANVLGAVNKPLSSAGKQSQTKSSRMETVSNASSSSNPSSPGRIKGRLDSSEMDHSENEDYTMSSPLPGKKSDKREDPDLSELEKPRSRKKAPVTDPEEKLGMDDLTKLVQEQKPKGSQRGRKRGRTASDSDEQQWPEEKRHKEELLENEDEQNSPPKKGKRGRPPKPLGGGTSKEEPTMKTSKKGNKKKLVPPVVDDDEEEERQIGNTEHKSKSKQHRTSKRAQQRAESPETSAVESTQSTPQKGRGRPSKAPSPSQPPKKIRVGRSKQVATKENDSSEEMDVLQASSPVSDDTTQEGAEEEDISVGNVRRRSSKRERR
In the case of B2, the binding result in assay [2] was “binds”.
